Data: patent US7981998 (dated 2011)

Assay: general procedure: Fmoc solid-phase peptide synthesis; Knorr Amide resin; HCTU, DIEA
Settings: whole synthesis, scale 0.1 mmol

“Ac-Asp-Ile-Re-Arg-Asn-Ile-Ala-Arg-His-Leu-Ala-c[MeCys-Val-Gly-Asp-α-MeCys]-Nle-Asp-Arg-Ser-Ile-NH2” showed an isolated mass of 0.6 mg.
